In patent publication US6949522B2, “β-2′- or 3′-halonucleosides” (Pharmasset, Inc., priority 2001, dated 2005):
For at least one compound, name, drawing or mass did not settle the structure.

Molecular target: T1, adenosine deaminase (EC.3.5.4.4. from calf intestinal mucosa) (Bos taurus, UniProt P56658)
T1 sequence (P56658 1-363): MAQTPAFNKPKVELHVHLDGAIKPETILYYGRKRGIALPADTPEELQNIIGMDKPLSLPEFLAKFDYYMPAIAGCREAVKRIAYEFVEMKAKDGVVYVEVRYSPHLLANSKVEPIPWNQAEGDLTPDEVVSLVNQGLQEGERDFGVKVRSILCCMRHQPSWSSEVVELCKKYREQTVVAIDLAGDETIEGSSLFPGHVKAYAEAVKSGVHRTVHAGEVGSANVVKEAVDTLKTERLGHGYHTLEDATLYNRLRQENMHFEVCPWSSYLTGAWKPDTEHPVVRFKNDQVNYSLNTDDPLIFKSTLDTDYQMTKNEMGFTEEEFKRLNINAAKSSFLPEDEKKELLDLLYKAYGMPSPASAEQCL
Conditions: 25° C., pH 7.4
Description: Assays were performed at 25° C. in phosphate buffer solution (pH 7.4) with substrate concentrations in the range of 15-100 μM and with 0.15 unit of adenosine deaminase (EC.3.5.4.4. from calf intestinal mucosa). The assays were monitored with a UV spectrometer at 265 nm. Initially, the qualitative assays were performed with D-β-2′-F-4′-S-d4A 24 (200 μM) in the presence of 0.24 unit of adenosine deaminase for 120 minutes to determine whether it is a substrate of this enzyme. The concentration (ct) of each substrate at a certain time (t) was calculated from the absorbance (At) at that time (t), where it was assumed that the total change of absorbance (A0−A∞) was directly related to the disappearance of the substrate.^35 Initial hydrolysis rates for each substrate concentration were measured manually through graphical curve fitting of the concentration versus time data for reaction of each substrate. From Lineweaver-Burke plot of these initial rates, Vmax (maximum velocity) and KM (Michaelis constant) were obtained for each substrate and kcat was also calculated with 0.15 unit of the enzyme (M.W. 33,000) in 2 mL of buffer solution.

SMILES: Nc1ncnc2c1ncn2[C@@H]1S[C@H](CO)C=C1F [Compound D-27, (−)-9-[(1R,4S)-2,3-dideoxy-2,3-didehydro-2-fluoro-4-thio-β-D-ribofuranosyl]-adenine]
- kcat/KM: 50000 M⁻¹ s⁻¹
